Test results from patent US12024543B2, “Micropeptides and use of same for modulating gene expression” (UNIVERSITE PAUL SABATIER TOULOUSE III, priority 2013, dated 2024).

Test system: roots of M. truncatula
Assay: Immunolocalization of miPEP171b in roots of M. truncatula
Design: species or system Medicago truncatula

Q: For “MLLHRLSKFCKIERDIVYIS (listed as Medicago truncatula) [MtmiPEP171b1]”, which “immunolocalization with anti-miPEP171b antibody” value (listed as miPEP171b) is on record?
A: presence of miPEP171b in the lateral root initiation sites

Q: And the “immunolocalization with anti-miPEP171b antibody” value (listed as miPEP171b1)?
A: presence of miPEP171b1 in the lateral root initiation sites
